Values are raw readings; no control value is given beside them.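 Maximum concentrations were near the MIC for antimicrobials, 500 µM for most other compounds, and as high as 1 mM for known inducer-like compounds. Deletion strains began with a tenfold smaller inoculum, and wells with growth under 10% of the overall median counted as non-growing.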
System: Escherichia coli BW25113
Assay: growth (OD600 area under curve, 8 h) (OD600 x h); higher = more growth
Procedure: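 E. coli BW25113 reporter strains (wild type, ΔmarA, ΔsoxS, Δrob, each carrying one of 8 lux reporter plasmids) were grown in 40 µl LB in 384-well plates at 37°C, 800 rpm, with each compound at 4 two-fold concentrations, in biological duplicates. Growth is the baseline-corrected OD600 area under the curve over 8 h (0-8 h WT, 1-9 h deletion strains).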

CC1(C)S[C@@H]2[C@H](NC(=O)[C@H](N)c3ccc(O)cc3)C(=O)N2[C@H]1C(=O)O [Amoxicillin]
growth
Settings	reporter plasmid: EVC	reporter plasmid: acrABp	reporter plasmid: marRABp	reporter plasmid: micFp	reporter plasmid: ompFp	reporter plasmid: robp	reporter plasmid: soxSp	reporter plasmid: tolCp
0.25 µg/ml, genetic background: wild type	3.03	3.44	3.458	2.99	3.258	3.44	2.83	2.88
0.25 µg/ml, genetic background: ΔmarA	3.26	4.41	4.05	3.35	3.85	4.33	3.17	3.09
0.25 µg/ml, genetic background: Δrob	3.1	3.569	3.61	2.82	2.89	3	2.71	2.97
0.25 µg/ml, genetic background: ΔsoxS	3.2	3.47	3.61	2.909	3.36	3.64	3.31	3.03
0.5 µg/ml, genetic background: wild type	2.81	3.4	3.47	2.87	3.14	3.24	2.67	2.806
0.5 µg/ml, genetic background: ΔmarA	3.01	4.18	3.95	3.24	3.72	4.17	2.99	2.99
0.5 µg/ml, genetic background: Δrob	2.92	3.36	3.61	2.74	2.76	3.12	2.69	2.98
0.5 µg/ml, genetic background: ΔsoxS	3.01	3.22	3.47	2.853	3.35	3.4	3.33	2.9
1 µg/ml, genetic background: wild type	3.15	3.8	3.45	2.88	3.33	3.41	2.79	2.79
1 µg/ml, genetic background: ΔmarA	3.69	4.59	4.18	3.45	4.08	4.7	3.55	3.47
1 µg/ml, genetic background: Δrob	3.08	3.85	3.85	3.13	3.09	3.01	2.99	3.18
1 µg/ml, genetic background: ΔsoxS	3.23	3.61	3.62	2.98	3.48	3.86	3.5	3.04
2 µg/ml, genetic background: wild type	2.12	0.225	0.593	1.13	0.11	0.885	1.9	1.8977
2 µg/ml, genetic background: ΔmarA	2.19	0.326	0.471	1.51	0.155	1.46	1.798	1.73
2 µg/ml, genetic background: Δrob	1.59	0.274	0.342	0.83	-0.00693	0.11	1.74	1.84
2 µg/ml, genetic background: ΔsoxS	1.95	0.208	0.257	0.839	0.0818	0.0969	0.821	2.16

From the supplement of paper PMC12282887
